Where “and” joins values, the source holds several entries; their conditions need not be identical. Equal entries are not always repeated. This is one part of the list. Further columns of the screen follow, without active or inactive calls. The list favours compounds with an active or inconclusive main result. Potencies come from curve fits of mixed quality, noted in brackets.
Assay: qHTS Assay for Modulators of Lamin A Splicing
Settings: HeLa LMNA splicing GFP/RFP minigene ratio, 48 h
Method in brief: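 S3 HeLa stable clones carrying a lamin A-EGFP splicing minigene plus DsRed2 were seeded at 600 cells/well in Opti-MEM with 2% FBS, pin-dosed and incubated 48 h at 37°C. Acumen cytometry (488 nm) gave the GFP/RFP total-intensity ratio.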

[1] = measured here: GFP splicing reporter channel
[2] = measured here: RFP viability control channel

Compound	AC50 [1]	AC50 [2]
C=CCc1ccccc1OCC(O)CNC(C)C (configuration not stated)	11.2 µM [falling, single point] and 20 nM [falling, full curve, poor fit]	15.8 µM [falling, single point] and 6.31 nM [falling, full curve, poor fit]
CCCC[n+]1ccn(C2=C([O-])c3ccccc3C(=O)/C2=N\S(=O)(=O)c2ccc(Br)cc2)c1	15.8 µM [rising, partial curve]	10 µM [rising, partial curve]
Cn1c(C(=O)N2CCN(c3cccc(C(F)(F)F)c3)CC2)cc2sccc21	17.8 µM [rising, partial curve]	15.8 µM [rising, partial curve]
CCc1ccc(N(C(=O)c2csnn2)C(C(=O)NC(C)(C)C)c2ccccn2)cc1 (configuration not stated)	3.16 µM [rising, full curve]	
c1ccc(-n2nnnc2SCc2cccc(CSc3nnnn3-c3ccccc3)n2)cc1		12.6 µM [rising, single point]
COc1ccc(Cn2c(C)c(C)c(C#N)c2NC(=O)Nc2cccc(Cl)c2)cc1	20 µM [rising, single point]	31.6 µM [rising, single point]
COCCNC(=S)N1CCN(S(C)(=O)=O)CC1	3.16 µM [rising, full curve, poor fit]	
O=C(COc1ccccc1)Nc1ccc2nc(SCC(=O)N3CCCC3)sc2c1	35.5 µM [falling, single point]	
CCOC(=O)c1cc(C)sc1NC(=O)C(c1ccccc1)c1ccccc1		0.02 µM [falling, full curve, poor fit]
CN(CCN1CCOCC1)Cc1nc(-c2cccs2)no1		6.31 µM [falling, partial curve, poor fit]
Cc1ccccc1CC1(CO)CCCN(C(=O)c2ccccc2N(C)C)C1 (configuration not stated)		0.0447 µM [falling, full curve, poor fit]
CCCCOc1ccc(CC(=O)NO)cc1	0.355 µM [falling, full curve, poor fit]	
Cn1nc(-c2ccc(OCC(=O)NCC3CCCO3)cc2)c2ccccc2c1=O (configuration not stated)		12.6 µM [rising, partial curve]
CN(C)c1ccc(/C=C2\C(=O)Nc3ccccc32)cc1	35.5 µM [falling, single point]	
CCOC(=O)CNc1nc(C(C)(C)C)nc2c1nnn2Cc1ccccc1Cl	14.1 µM [rising, single point]	35.5 µM [rising, single point]
CCN(CCCNC(=O)c1[nH]c(C)c(C(C)=O)c1C)c1cccc(C)c1		14.1 µM [rising, single point]
Cc1cccc(NC2=C(NC(=O)c3ccccc3)C(=O)c3ccccc3C2=O)c1		15.8 µM [rising, partial curve]
CN(C)S(=O)(=O)c1cccc(C(=O)Nc2cc(Cl)cc(Cl)c2)c1		35.5 µM [rising, single point]
CS(=O)(=O)Nc1cccc(-c2nc(-n3ccnc3)c3ccccc3n2)c1	17.8 µM [falling, partial curve]	35.5 µM [falling, single point]
COC(=O)c1nc(N)sc1C	0.891 µM [falling, partial curve]	
COc1ccccc1C(=O)/C=C/c1ccc(N2CCCCC2)c([N+](=O)[O-])c1	35.5 µM [falling, single point]	3.98 µM [falling, single point]
O=C(CN1CCN(c2ccc(Cl)cc2)CC1)Nc1ccc(F)c(F)c1	0.01 µM [falling, full curve, poor fit]	0.0112 µM [falling, full curve, poor fit]
Cc1ccccc1OCC(O)CN1CCN(C)CC1 (configuration not stated)	3.98 µM [rising, partial curve]	3.98 µM [rising, single point]
CCOC(=O)c1oc2ccc(S(=O)(=O)n3nc(-c4ccccc4)cc3N)cc2c1C		31.6 µM [rising, single point]
CCOC(=O)C1(CCC(C)C)CC(CSc2nc3ccccc3[nH]2)OC1=O (configuration not stated)		12.6 µM [rising, single point]
O=C(CN1CCN(c2ccccc2)CC1)Nc1ccc(OCc2ccccc2)cc1	35.5 µM [rising, single point]	35.5 µM [rising, single point]

Compound	AC50 [1]	AC50 [2]
Cc1cc(C)nc(N2CCC(C(=O)N3CCN(c4cc(Cl)ccc4C)CC3)CC2)n1		12.6 µM [rising, single point]
COc1ccc(-c2cc(C(=O)N/N=C/c3ccc4c(c3)OCO4)c3ccccc3n2)c(OC)c1	14.1 µM [rising, single point]	12.6 µM [rising, single point]
CC(C)CCNC(=O)c1ccc2c(c1)N(C)C(=O)c1ccccc1S2	0.00501 µM [falling, full curve, poor fit]	0.00447 µM [falling, full curve, poor fit]
O=C(C1=C(O)C(=O)N(Cc2cccnc2)C1c1ccccn1)c1cccs1 (configuration not stated)	0.794 µM [rising, full curve, poor fit]	0.447 µM [rising, full curve, poor fit]
CC(C)=CCC/C(C)=C/CC(C)(C)CNCCN1CCNCC1	35.5 µM [falling, single point]	35.5 µM [falling, single point]
CCOc1cc2[nH]c(=O)n(CCCCCC(=O)NC(C)CC)c(=O)c2cc1OCC (configuration not stated)		5.62 µM [falling, partial curve, poor fit]
Cc1cc(C)cc(NC(=O)c2ccc(Cn3nc(C)c(Cl)c3C)o2)c1	12.6 µM [rising, single point]	17.8 µM [rising, partial curve]
Cc1ccc(C)c(NC(=O)CCc2ccc(S(=O)(=O)NC3CCCCC3)cc2)c1		12.6 µM [rising, single point]
CCCCCCCCCCCCCCCCO	35.5 µM [falling, single point]	0.355 µM [rising, full curve, poor fit]
Cc1ccc(C(=O)CC2(O)C(=O)N(Cc3ccccc3)c3ccc(Br)cc32)cc1 (configuration not stated)		35.5 µM [falling, single point]
Nc1cccc(Nc2nc(OC(C(F)(F)F)C(F)(F)F)nc(OC(C(F)(F)F)C(F)(F)F)n2)c1	20 µM [falling, single point]	35.5 µM [falling, single point]
Cc1ccc(-c2[nH]ncc2/C=C(\C#N)C(=O)NC2CCCCC2)cc1	10 µM [rising, partial curve]	10 µM [rising, partial curve]
O=C(O)c1ccccc1N/N=C/c1c(Sc2nnnn2-c2ccccc2)nc2ccccn2c1=O	0.355 µM [rising, full curve, poor fit]	
CCc1cc2c(NCC3CCCO3)ncnc2s1 (configuration not stated)	20 µM [rising, single point]	35.5 µM [rising, single point]
Cc1ccc2nc(=O)c(NNc3ccccc3)cnc2c1	31.6 µM [rising, single point]	12.6 µM [rising, single point]
NS(=O)(=O)c1ccc(NC(=O)COC(=O)c2cnccn2)cc1	0.708 µM [rising, single point]	0.501 µM [rising, single point]
CCOc1ccccc1CNC(=O)CCn1cccn1	0.0562 µM [falling, full curve, poor fit]	0.0562 µM [falling, full curve]
Cc1noc(C)c1-c1ccc2ncnc(Nc3ccccc3)c2c1	14.1 µM [falling, partial curve]	2.51 µM [falling, partial curve, poor fit]
CCN1/C(=C/C(C)=O)Sc2ccc(OC)cc21	2.51 µM [rising, full curve, poor fit] and 398 nM [falling, full curve, poor fit]	11.2 µM [falling, partial curve, poor fit] and 794 nM [falling, full curve, poor fit]
CC(=O)Nc1ccccc1C(=O)C(=O)Nc1ccccc1	6.31 µM [rising, single point]	
CCCC(=O)N1CCCC(c2nc(-c3cccc(OC)c3)no2)C1 (configuration not stated)	0.0794 µM [rising, full curve, poor fit]	
CCOc1ccc(S(=O)(=O)Nc2ccc(Cl)cn2)c(C)c1C		31.6 µM [rising, single point]
Cc1c(Cl)cccc1NC(=O)Nc1cc(C(C)(C)C)nn1C	4.47 µM [falling, partial curve, poor fit]	0.00891 µM [falling, full curve, poor fit]
O=C1C(=O)N(c2cccc(Cl)c2)C(c2ccccc2[N+](=O)[O-])/C1=C(\O)c1ccccc1 (configuration not stated)		12.6 µM [falling, single point]
Cc1ccc(S(=O)(=O)NC(N)=NCCc2ccc(Cl)cc2)cc1		11.2 µM [rising, partial curve]
CCOc1ccc(S(=O)(=O)N(C)c2ccc(OCC(=O)Nc3nc(-c4cc(OC)ccc4OC)cs3)cc2)cc1		6.31 µM [rising, single point]

In the list so far, two contain bromine.
Compound	AC50 [1]	AC50 [2]
CCCC[n+]1ccn(C2=C([O-])c3ccccc3C(=O)/C2=N\S(=O)(=O)c2ccc(Br)cc2)c1	15.8 µM [rising, partial curve]	10 µM [rising, partial curve]
Cc1ccc(C(=O)CC2(O)C(=O)N(Cc3ccccc3)c3ccc(Br)cc32)cc1 (configuration not stated)		35.5 µM [falling, single point]
